Measured data: PubChem BioAssay AID686943 (Drosophila RNAi Screening Center, 2013)

- Purpose: 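Search across the genome for regulators of signalling from receptor tyrosine kinase to ERK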 (primary screen)
- Cell system: Drosophila S2R+ haemocyte-like cells expressing YFP-tagged ERK (Rolled)
- Reagent: long dsRNA against Drosophila genes
- Challenge: insulin stimulation versus unstimulated cells; dose and duration not given
- Detection: 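Antibody staining for doubly phosphorylated ERK divided by ERK-YFP signal, as plate z-scores, in insulin-treated and untreated cells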
- Direction: replicate 1, z-score of dpERK with insulin and replicate 2, z-score of dpERK with insulin: higher = more active ERK per ERK-YFP after insulin
In all, the deposit lists about 23,000 reagents; shown is a random part of those that have a named target and a result. 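Extra replicates exist only for a retested subset of genes; insulin dose and duration not given; both raised and lowered dpERK matter.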 A plus sign joins genes that one reagent is predicted to hit. Not all columns of the deposit are shown. No sequences are given here. Not given: the amount of reagent, the time to read-out.

ArgRS (GeneID 32539) [SID104199930] — replicate 1, z-score of dpERK with insulin: 0.04; replicate 2, z-score of dpERK with insulin: -0.07
Idh3b (GeneID 42586) [SID104195832] — replicate 1, z-score of dpERK with insulin: -0.79; replicate 2, z-score of dpERK with insulin: 0.35
CG3907 (GeneID 37832) [SID104184224] — replicate 1, z-score of dpERK with insulin: -0.22; replicate 2, z-score of dpERK with insulin: -0.61
Cyp313a5 (GeneID 41486) [SID104196420] — replicate 1, z-score of dpERK with insulin: 1.03; replicate 2, z-score of dpERK with insulin: -0.32
CG16868 (GeneID 37298) [SID104186425] — replicate 1, z-score of dpERK with insulin: 0.59; replicate 2, z-score of dpERK with insulin: 0.14
CG18249 (GeneID 40964) [SID104195110] — replicate 1, z-score of dpERK with insulin: -0.08; replicate 2, z-score of dpERK with insulin: -0.06
Cox11 (GeneID 33776) [SID104202081] — replicate 1, z-score of dpERK with insulin: 1.12; replicate 2, z-score of dpERK with insulin: 0.82
nyo (GeneID 43716) [SID104194821] — replicate 1, z-score of dpERK with insulin: 0.8; replicate 2, z-score of dpERK with insulin: 0
nyo (GeneID 43716) [SID104194822] — replicate 1, z-score of dpERK with insulin: -1.55; replicate 2, z-score of dpERK with insulin: 0.97
ND-42 (GeneID 42591) [SID104196546] — replicate 1, z-score of dpERK with insulin: -0.1; replicate 2, z-score of dpERK with insulin: -1.26
GAA1 (GeneID 31517) [SID104198059] — replicate 1, z-score of dpERK with insulin: 0.76; replicate 2, z-score of dpERK with insulin: 0.53
CG17652 (GeneID 33353) [SID104180303] — replicate 1, z-score of dpERK with insulin: 0.69; replicate 2, z-score of dpERK with insulin: 1.26
CG17134 (GeneID 34494) [SID104182375] — replicate 1, z-score of dpERK with insulin: 0.81; replicate 2, z-score of dpERK with insulin: 0.29
conu (GeneID 3355133) [SID104187602] — replicate 1, z-score of dpERK with insulin: 1.1; replicate 2, z-score of dpERK with insulin: 0.26
CG7458 (GeneID 40441) [SID104191621] — replicate 1, z-score of dpERK with insulin: 0.69; replicate 2, z-score of dpERK with insulin: 0.63
CG7458 (GeneID 40441) [SID104201119] — replicate 1, z-score of dpERK with insulin: 0.41; replicate 2, z-score of dpERK with insulin: 0.91
pico (GeneID 33003) [SID104199222] — replicate 1, z-score of dpERK with insulin: -0.4; replicate 2, z-score of dpERK with insulin: -0.47
Pde11 (GeneID 35107) [SID104181820] — replicate 1, z-score of dpERK with insulin: 1.24; replicate 2, z-score of dpERK with insulin: 1.63
Pde11 (GeneID 35107) [SID104182252] — replicate 1, z-score of dpERK with insulin: 2.47; replicate 2, z-score of dpERK with insulin: 2.7
CG18223 (GeneID 40068) [SID104190098] — replicate 1, z-score of dpERK with insulin: -0.06; replicate 2, z-score of dpERK with insulin: -0.05
Reps (GeneID 34542) [SID104182732] — replicate 1, z-score of dpERK with insulin: 0.44; replicate 2, z-score of dpERK with insulin: 0.14
CG32847 (GeneID 318245) [SID104202260] — replicate 1, z-score of dpERK with insulin: 0.44; replicate 2, z-score of dpERK with insulin: -3.41
Cdc7 (GeneID 31598) [SID104198220] — replicate 1, z-score of dpERK with insulin: 0.36; replicate 2, z-score of dpERK with insulin: 0.01
Cdc7 (GeneID 31598) [SID104198221] — replicate 1, z-score of dpERK with insulin: -0.11; replicate 2, z-score of dpERK with insulin: 0.39
Cdc7 (GeneID 31598) [SID104201686] — replicate 1, z-score of dpERK with insulin: 0.88; replicate 2, z-score of dpERK with insulin: 0.03
CG31496 (GeneID 326145) [SID104192339] — replicate 1, z-score of dpERK with insulin: 0.65; replicate 2, z-score of dpERK with insulin: 1.41
CG13544 (GeneID 37673) [SID104183978] — replicate 1, z-score of dpERK with insulin: 0.45; replicate 2, z-score of dpERK with insulin: -0.28
Tcs6 + PIG-P [SID104193534] — replicate 1, z-score of dpERK with insulin: -0.52; replicate 2, z-score of dpERK with insulin: -0.51
Tcs6 + PIG-P [SID104194685] — replicate 1, z-score of dpERK with insulin: -0.22; replicate 2, z-score of dpERK with insulin: -0.04
Pus1 (GeneID 42440) [SID104195340] — replicate 1, z-score of dpERK with insulin: 1.1; replicate 2, z-score of dpERK with insulin: 0.02
CG6171 (GeneID 41872) [SID104195774] — replicate 1, z-score of dpERK with insulin: -0.41; replicate 2, z-score of dpERK with insulin: -0.44

4 consecutive records already listed, quoted:
CG16868 (GeneID 37298) [SID104186425] — replicate 1, z-score of dpERK with insulin: 0.59; replicate 2, z-score of dpERK with insulin: 0.14
CG18249 (GeneID 40964) [SID104195110] — replicate 1, z-score of dpERK with insulin: -0.08; replicate 2, z-score of dpERK with insulin: -0.06
Cox11 (GeneID 33776) [SID104202081] — replicate 1, z-score of dpERK with insulin: 1.12; replicate 2, z-score of dpERK with insulin: 0.82
nyo (GeneID 43716) [SID104194821] — replicate 1, z-score of dpERK with insulin: 0.8; replicate 2, z-score of dpERK with insulin: 0
